Data as given in PubChem BioAssay AID743255 (National Center for Advancing Translational Sciences (NCATS), 2014).
Among all 390,000 compounds or so, about 910 (0.23%) were called active. The inconclusive results got no clear call from the source; some entries with a clear call stand among them for comparison. Calls follow the shape of the dose curve; as a rule, active = well fitted inhibition curve with a large enough effect; inconclusive = small, poorly fitted or top-dose-only effect; inactive = no such curve, though single readings can be large or run the other way. Potencies beside an inconclusive call are fits to weak or partial responses and may not hold up.

By UniProt entry, the sequences of proteins in these tests, tags left out. Where a name states a change or a piece, a line headed by the entry shows the natural chain unless it says otherwise.
UniProt O94782: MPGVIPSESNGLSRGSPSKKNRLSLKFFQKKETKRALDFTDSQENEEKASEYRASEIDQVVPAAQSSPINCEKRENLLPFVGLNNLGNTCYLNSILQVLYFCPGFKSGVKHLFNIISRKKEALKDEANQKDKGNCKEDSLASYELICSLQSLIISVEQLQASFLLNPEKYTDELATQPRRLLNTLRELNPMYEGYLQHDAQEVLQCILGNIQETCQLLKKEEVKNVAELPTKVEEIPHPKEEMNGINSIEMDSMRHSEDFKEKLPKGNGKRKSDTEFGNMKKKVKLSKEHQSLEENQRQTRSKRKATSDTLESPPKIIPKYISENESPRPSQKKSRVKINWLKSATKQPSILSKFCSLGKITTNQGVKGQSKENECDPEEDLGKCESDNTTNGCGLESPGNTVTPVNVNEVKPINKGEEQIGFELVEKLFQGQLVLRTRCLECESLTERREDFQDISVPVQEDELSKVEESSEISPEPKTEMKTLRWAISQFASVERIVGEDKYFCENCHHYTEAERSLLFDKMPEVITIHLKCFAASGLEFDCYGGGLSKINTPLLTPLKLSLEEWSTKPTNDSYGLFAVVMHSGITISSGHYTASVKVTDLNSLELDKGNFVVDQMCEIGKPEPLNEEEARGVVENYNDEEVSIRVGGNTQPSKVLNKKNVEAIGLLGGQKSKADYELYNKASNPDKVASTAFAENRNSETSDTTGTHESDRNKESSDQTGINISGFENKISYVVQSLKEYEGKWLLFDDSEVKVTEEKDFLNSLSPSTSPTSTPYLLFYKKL

Target: Ubiquitin carboxyl-terminal hydrolase 1 (Homo sapiens) (UniProt O94782)
Assay: Inhibitors of USP1/UAF1: Primary Screen; also: nearly all actives have a fitted effect of over 60% in size
Conditions: recombinant USP1/UAF1, Ub-Rhodamine cleavage fluorescence; activity change, negative = inhibition: at 57.1 µM (top of the series)
Procedure, shortened: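 USP1/UAF1 complex at 1 nM was preincubated with compound for 15 min at room temperature, then Ub-Rho substrate (150nM final) was added. Fluorescence (480/540 nm) was read kinetically, 6 reads every 60 seconds.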
% is scaled to controls: 0 for no effect and ±100 for the full control effect; potency is read from the fitted curve at half-maximal effect.

Potency, inconclusive:
O=S(=O)(c1ccc2nnn(O)c2c1)N1CCCCC1 35.5 µM [inhibitor, partial curve, poor fit]
Cc1cccc(OCCCSc2nc(-c3ccc(C(C)(C)C)cc3)nc3cc(=O)[nH]n23)c1C 31.6 µM [inhibitor, single point]
CC(NC(=O)c1ccc(CSc2nc3ccncc3n2Cc2ccc(F)cc2)cc1)c1ccccc1 (stereo unspecified) 7.08 µM [inhibitor, partial curve, poor fit]
Cc1ccccc1-c1noc(-c2cc(C(C)C)[nH]n2)n1 11.2 µM [inhibitor, partial curve, poor fit]
COCCNC(=O)C(c1ccc(O)cc1)N(Cc1ccccc1)C(=O)CCC(=O)Nc1ccccn1 (stereo unspecified) 44.7 µM [inhibitor, partial curve]
Cc1ccc(NC(=O)Cn2cnc3c(oc4ccccc43)c2=O)cc1 1.78 µM [inhibitor, full curve]
COc1ccc2c(c1)Cc1sc(NC(=O)c3ccc(Cl)cc3)nc1-2 44.7 µM [inhibitor, partial curve, poor fit]
O=S(=O)(c1ccc(F)cc1)N1CCn2c(nc3ccccc32)C1 20 µM [inhibitor, partial curve]
CCS(=O)(=O)N1Cc2ccccc2CC1C(=O)N1CCN(c2cccc(C)c2C)CC1 (stereo unspecified) 50.1 µM [inhibitor, partial curve, poor fit]
N#C/C(=C/c1ccc(N2CCCCCC2)o1)c1ccc(F)cc1 35.5 µM [inhibitor, partial curve]
Cn1c(-c2ccc3nc(N)sc3c2)nc2cc(N)ccc21 28.2 µM [inhibitor, partial curve]
CCC(=O)OC1=CN(Cc2ccccc2)S(=O)(=O)c2ccccc21 8.91 µM [inhibitor, partial curve]
Cc1ccc(C)c(N2CCN(C(=O)CNS(=O)(=O)c3cccs3)CC2)c1 112 µM [inhibitor, partial curve, poor fit]
CCOc1ccc(CN(CC)C(=O)Cc2c[nH]c3ccccc23)cc1OC 6.31 µM [inhibitor, full curve, poor fit]
COc1ccc(CCn2c(=N)c(C(=O)NCC3CCCO3)cc3c(=O)n4ccccc4nc32)cc1OC (stereo unspecified) 100 µM [inhibitor, partial curve, poor fit]
N#C/C(=C\c1c(Oc2ccc(F)cc2)nc2ccccn2c1=O)c1nc2ccccc2s1 0.631 µM [inhibitor, full curve, poor fit]
CC(C)(C)OC(=O)N1CCC(C(=O)Nc2cccc(C(=O)NCCCc3ccccc3)c2)CC1 0.282 µM [inhibitor, full curve, poor fit]
Cc1cccc(OCCSc2nc3ccccc3n2CC(=O)N2CCOCC2)c1C 6.31 µM [inhibitor, partial curve]
O=C(CCCOc1ccc(Cl)cc1Cl)N/N=C/c1cccc([N+](=O)[O-])c1 39.8 µM [inhibitor, partial curve]
O=C(Nc1ccc(OC(F)(F)F)cc1)c1ccccc1-n1cnnn1 89.1 µM [inhibitor, partial curve, poor fit]
N#Cc1cc2cc3c(cc2nc1SCC(=O)OC1CCCCC1)OCO3 79.4 µM [inhibitor, partial curve, poor fit]
CCCCOC(=O)Nc1cc(C(=O)OC)ccc1C(=O)OC 0.794 µM [inhibitor, full curve]
Cc1cc(Nc2ccc(Cl)cc2)nc(N2CCOCC2)n1 0.398 µM [inhibitor, partial curve, poor fit]
CC1(C(=O)N2CC3(CC(c4cccc(NC(=O)CC(c5ccccc5)c5ccccc5)c4)=NO3)C[C@@H]2C(N)=O)CC1 (stereo partly specified) 100 µM [inhibitor, partial curve, poor fit]
Cc1ccccc1Nc1nnc(-c2ccc(C)c(S(=O)(=O)N3CCCCC3)c2)c2ccccc12 6.31 µM [inhibitor, full curve]
COc1ccc(CNC(=O)c2ccc3c(c2)N(Cc2ccccc2)CCS3)cc1 44.7 µM [inhibitor, partial curve, poor fit]
O=C1CCc2cc(S(=O)(=O)N3CCC(C(=O)Nc4nccs4)CC3)ccc2N1 0.794 µM [inhibitor, full curve, poor fit]
Cc1ccc(N2C(=O)C3CC3C2=O)cc1 (stereo unspecified) 7.94 µM [inhibitor, partial curve, poor fit]
O=C1NC[C@H](Cc2ccccc2)N(CC2CCN(CCC3CCCC3)CC2)C1=O 25.1 µM [inhibitor, partial curve]
CCc1cccc(NC(=O)c2cccc3c2C(=O)N(C2CCCCC2)C3)c1 39.8 µM [inhibitor, partial curve]
COc1ccc(OC)c(C2CC(=O)c3c([nH]c(C(=O)OCC4CCCO4)c3C)C2)c1 (stereo unspecified) 35.5 µM [inhibitor, partial curve]
O=C(C1CCCC1)N1CCC(CC2CC(c3ccc(Cl)cc3)=NO2)(C(=O)NCC2CCCCC2)CC1 (stereo unspecified) 44.7 µM [inhibitor, partial curve, poor fit]
Cc1ccc(/C=C2\S/C(=N/S(=O)(=O)c3cccs3)NC2=O)cc1 35.5 µM [inhibitor, partial curve, poor fit]
Cc1nc2nc(C(F)(F)F)[nH]n2c(=O)c1Cc1ccccc1 0.126 µM [inhibitor, full curve, poor fit]
CN1CCN(C(=O)C2=C[C@@H](c3csc4ccccc34)C[C@@H](OCc3ccc(CO)cc3)O2)CC1 0.282 µM [inhibitor, full curve, poor fit]
O=C(O)CN1C(=O)/C(=C\c2cc([N+](=O)[O-])ccc2OCc2ccccc2Cl)SC1=S 31.6 µM [inhibitor, partial curve]
CCCCN(CC)CCCNC(=O)c1ccc2c(c1)N(Cc1ccc(C)cc1)C(=O)c1ccccc1S2 0.794 µM [inhibitor, full curve]
CC1CCN(c2nc3ccccc3nc2SCC(=O)Nc2ccccc2C(C)C)CC1 14.1 µM [inhibitor, partial curve, poor fit]
CCCOc1c(Cl)cc(/C=N/O)cc1OCC 22.4 µM [inhibitor, partial curve]
Cc1ccc(CNC(=O)c2cccc3c2C(=O)c2ccc(N4CCC(C)CC4)cc2S3(=O)=O)cc1 31.6 µM [inhibitor, partial curve, poor fit]
Oc1ccc2nnc3c(Br)cnn3c2c1 25.1 µM [inhibitor, single point]

Random excerpt: 3 entries already listed, in no set order.
Potency, inconclusive:
Cc1cccc(OCCCSc2nc(-c3ccc(C(C)(C)C)cc3)nc3cc(=O)[nH]n23)c1C 31.6 µM [inhibitor, single point]
O=C(O)CN1C(=O)/C(=C\c2cc([N+](=O)[O-])ccc2OCc2ccccc2Cl)SC1=S 31.6 µM [inhibitor, partial curve]
CCS(=O)(=O)N1Cc2ccccc2CC1C(=O)N1CCN(c2cccc(C)c2C)CC1 (stereo unspecified) 50.1 µM [inhibitor, partial curve, poor fit]

Next part.

Potency, inactive:
C=C(CN(C)C)C(=O)c1cc(OC)c(OC)cc1OC
Cc1ccc(C(=O)OCn2ncc(Cl)c(Cl)c2=O)cc1
COc1ccc(C(=O)NCc2nnc(SCC(=O)Nc3ccc(F)cc3)n2-c2ccccc2)cc1
Cc1ccc(COc2cccc3cc(-c4noc(-c5ccc(C)cc5)n4)c(=O)oc23)cc1
CCOc1ccc(OCc2ccc(C(=O)N3CCOCC3)cc2)cc1
Cc1cc(C)n(-c2ncc3c(n2)N(CCO)CCOC3=O)n1
COc1ccc(Oc2ccc(/C=C/C(=O)c3ccc(O)cc3)cc2[N+](=O)[O-])cc1
C[C@@H]1CN([C@@H](C)CO)C(=O)CCCn2nncc2CO[C@H]1CN(C)C(=O)Nc1ccccc1F
COc1cccc(NC(=O)c2cn(C)c(=O)c3cc(OC)c(OC)cc23)c1
O=C(NS(=O)(=O)Nc1ccccc1)C1=C(N2CCCC2)COC1=O
S=C(NCc1ccccc1)N1CCN(c2ccccc2)CC1
O=C(NNc1c2ccccc2nc2ccccc12)c1ccc(O)cc1O
Cc1ccccc1C(=O)N1CCC2CC1c1cc(Cl)ccc12 (stereo unspecified)
COc1ccc(NC(=O)C=C(C)C)cc1Cl
O=c1oc2c(CN3CCOCC3)c(O)ccc2c2ccccc12
CCC(/C=C1\Oc2ccc(OC)cc2N1C)=C\c1sc2ccccc2[n+]1CCCS(=O)(=O)[O-]
Cc1cc(C)n(CCC(=O)N/N=C/c2ccc(Br)c([N+](=O)[O-])c2)n1
Cc1ccc(S(=O)(=O)N2[C@@H](c3ccc(Br)cc3)C(C(=O)O)=C[C@H]2C(C)(C)C)cc1
Cc1nc(S(=O)(=O)c2ccc(Cl)cc2)c(N(C)C)o1
O=C(NCC(c1ccc2c(c1)OCO2)N1CCN(c2ccccc2)CC1)c1ccccc1 (stereo unspecified)
O=C(O)c1cc(O)ccc1N=Nc1ccccc1

Potency, active:
Oc1ccc(NCc2ccccc2OCc2ccccc2Cl)cc1 31.6 µM
CCOC(=O)c1ccc(/C=C2/C=C(c3ccccc3)N(c3ccc(Cl)c(C(=O)O)c3)C2=O)cc1 25.1 µM
COc1cc(OC)c(OC)cc1/C=C1\Oc2cc(OCC(=O)N3Cc4ccccc4C[C@H]3C(=O)O)ccc2C1=O 14.1 µM

Activity change, negative = inhibition, inconclusive:
CCC(=O)Nc1ccc2nc3c(=O)[nH]c(=S)[nH]c3nc2c1 -31.2% [inhibitor]
